This is an account of results in paper PMC10237670.

Protein sequences, listed by entry. Tags and fused reporters are not part of them. Residues count along the entry.
UniProt P54132, 636-1298 K869A/K870A: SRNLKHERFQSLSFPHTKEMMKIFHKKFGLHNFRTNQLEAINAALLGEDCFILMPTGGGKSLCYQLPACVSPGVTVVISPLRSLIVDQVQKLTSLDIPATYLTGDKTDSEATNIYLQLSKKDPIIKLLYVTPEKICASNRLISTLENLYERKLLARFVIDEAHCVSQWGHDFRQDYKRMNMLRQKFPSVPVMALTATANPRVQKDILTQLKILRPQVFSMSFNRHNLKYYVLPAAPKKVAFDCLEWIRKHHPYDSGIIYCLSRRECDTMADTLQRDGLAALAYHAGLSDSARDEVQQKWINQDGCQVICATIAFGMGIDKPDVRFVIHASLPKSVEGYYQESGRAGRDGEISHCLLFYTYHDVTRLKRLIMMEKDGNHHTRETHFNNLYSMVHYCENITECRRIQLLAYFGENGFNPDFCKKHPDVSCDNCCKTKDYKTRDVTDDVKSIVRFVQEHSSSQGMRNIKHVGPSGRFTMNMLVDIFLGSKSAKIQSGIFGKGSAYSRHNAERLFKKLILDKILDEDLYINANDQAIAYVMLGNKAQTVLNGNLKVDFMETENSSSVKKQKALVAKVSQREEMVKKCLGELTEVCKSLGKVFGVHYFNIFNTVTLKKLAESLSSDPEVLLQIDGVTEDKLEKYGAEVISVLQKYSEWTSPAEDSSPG

In this data set the target is BLMcore K869A K870A (Homo sapiens) (UniProt P54132). Nature of the data set: EMSA. As to conditions: 5 mM MgCl2, smear, no distinct shift (text: weakened binding), estimated apparent KD; 50 mM Tris-HCl pH 7.5, 50 mM KCl, 5 mM MgCl2, 1 mM DTT, 0.1 mg/mL BSA, 40 nM DNA, 30 min room temperature; 5% gel in TBE + 100 mM KCl at 4 C; recombinant protein; residues 636-1298; label: 3'-FAM on oAV320 (strand 2).

Construct, isoform or probe ends are uncertain for at least one entry.

For the sequence “TGGCGACGGCAGCGAGGCTTAGGGTTAGCGTTAGCGTTAGGGTTTTTTTTTTTTTTT / GCCTCGCTGCCGTCGCCA [partial dsDNA with 3' ssDNA overhang (oRC32/FAM-oAV320)]”, the Kd was 62.5 nM.
